“And” between values parts separate entries of the source, which are not always exact repeats. Equal values may be shown once. The list shows a part of the results. Each value is one well over the wells without odorant, computed here; the data are noisy.
tested on: OR6X1 clone 1239; test: odorant receptor activation (CRE luciferase / Renilla) (fold of no-odor wells); higher = more activation; conditions: 100 µM

SMILES	odorant receptor activation
CCCCCCC=O [heptaldehyde]	1.01
COc1cc(C)ccc1O [2-methoxy-4-methylphenol]	0.898
O=C1CCCCCCCCCCCCCCO1 [pentadecalactone]	0.942
CCCCCCOC(=O)CCC [hexyl butyrate]	0.98
CC12CCC(CC1)C(C)(C)O2 [cineole]	0.903
CCCC(=O)O [butyric acid]	1.18
COc1ccccc1O [guaiacol]	0.988
CCCCCCCOC(C)=O [heptyl acetate]	0.889
CCCCCOC(C)=O [n-amyl acetate]	1.03
CCCCCCCCC=O [nonyl aldehyde]	1.05
CC1COCc2cc3c(cc21)C(C)(C)C(C)C3(C)C (stereo not given) [galaxolide]	0.29 and 0.65
CC(C)CC(=O)O [isovaleric acid]	1.25
CC(C)C=O [isobutyraldehyde]	0.984
CCCCCCCC=O [octyl aldehyde]	0.866
CC1=CCC(C(C)(C)O)CC1 (stereo not given) [terpineol]	1.3
CC(C)(O)CCCC1=CCC(C=O)CC1 (stereo not given) [lyral]	1.15
CC=Cc1ccc(O)c(OC)c1 [isoeugenol]	4.35
CC/C=C\CCO [cis-3-hexen-1-ol]	0.937
C=C(C)C1CCC2=CC(=O)CC(C)C2(C)C1 (stereo not given) [amyl laurate]	0.914
CCCCCCCCCCC=O [undecanal]	1.14
C=C(C)C1CC=CCC1 (stereo not given) [r-limonene]	1.17

tested on: OR6Y1 V252I clone 1025; test: as above; conditions: 100 µM

SMILES	odorant receptor activation
CCCCCC(C)=O [2-heptanone]	0.653
CCCCCCC=O [heptaldehyde]	1.29 and 2.81
COc1cc(C)ccc1O [2-methoxy-4-methylphenol]	1.82
O=C1CCCCCCCCCCCCCCO1 [pentadecalactone]	0.919
CC(C)(C)c1ccc(CCC=O)cc1 [bourgeonal]	0.933
CCCCCCOC(=O)CCC [hexyl butyrate]	0.98
CC12C=CCC1C1CCC3=CC(=O)CCC3(C)C1CC2 (stereo not given) [androstadienone]	2.15
CC12CCC(CC1)C(C)(C)O2 [cineole]	0.874
CC1=NC(C)SC1C (stereo not given)	1.15
CCCC(=O)O [butyric acid]	1.1
COc1ccccc1O [guaiacol]	2.3
O=C1CCCCC1 [Cyclohexanone]	0.971
CCCCCCCOC(C)=O [heptyl acetate]	2.91
CC(=O)c1ccccc1 [acetophenone]	0.666
CCCCCOC(C)=O [n-amyl acetate]	1.29
CCCCCCCCC=O [nonyl aldehyde]	1.16
CC1COCc2cc3c(cc21)C(C)(C)C(C)C3(C)C (stereo not given) [galaxolide]	6.38
CC(C)CC(=O)O [isovaleric acid]	1.21
CC(C)C=O [isobutyraldehyde]	1.29
CCCCCCCC=O [octyl aldehyde]	1.2
CC1=CCC(C(C)(C)O)CC1 (stereo not given) [terpineol]	0.9
CC12C=CCC1C1CCC3CC(=O)CCC3(C)C1CC2 (stereo not given) [androstenone]	1.79
CC=Cc1ccc(O)c(OC)c1 [isoeugenol]	2.21
CC/C=C\CCO [cis-3-hexen-1-ol]	0.885
CCCCCCCCCCC=O [undecanal]	0.958
COC(=O)c1ccccc1 [methyl benzoate]	1.5
C=C(C)C1CC=CCC1 (stereo not given) [r-limonene]	1.27 and 1.45

tested on: OR7A10 clone 1104; test: as above; conditions: 100 µM

SMILES	odorant receptor activation
CCCCCC(C)=O [2-heptanone]	0.465
CCCCCCC=O [heptaldehyde]	1.2 and 2.83
COc1cc(C)ccc1O [2-methoxy-4-methylphenol]	3.22
O=C1CCCCCCCCCCCCCCO1 [pentadecalactone]	1.26
CC(C)(C)c1ccc(CCC=O)cc1 [bourgeonal]	0.941
CCCCCCOC(=O)CCC [hexyl butyrate]	0.99
CC12C=CCC1C1CCC3=CC(=O)CCC3(C)C1CC2 (stereo not given) [androstadienone]	2.28
CC12CCC(CC1)C(C)(C)O2 [cineole]	0.772
CC1=NC(C)SC1C (stereo not given)	1.37
CCCC(=O)O [butyric acid]	1.2
COc1ccccc1O [guaiacol]	1.81
O=C1CCCCC1 [Cyclohexanone]	1
CCCCCCCOC(C)=O [heptyl acetate]	1.2
CC(=O)c1ccccc1 [acetophenone]	0.783
CCCCCOC(C)=O [n-amyl acetate]	1.58
CCCCCCCCC=O [nonyl aldehyde]	1.08
CC1COCc2cc3c(cc21)C(C)(C)C(C)C3(C)C (stereo not given) [galaxolide]	5.68
CC(C)CC(=O)O [isovaleric acid]	1.03
CC(C)C=O [isobutyraldehyde]	2.24
CCCCCCCC=O [octyl aldehyde]	1.2
CC1=CCC(C(C)(C)O)CC1 (stereo not given) [terpineol]	1.48
CC12C=CCC1C1CCC3CC(=O)CCC3(C)C1CC2 (stereo not given) [androstenone]	3.15
CC=Cc1ccc(O)c(OC)c1 [isoeugenol]	1.4
CC/C=C\CCO [cis-3-hexen-1-ol]	0.962
CCCCCCCCCCC=O [undecanal]	1.39
COC(=O)c1ccccc1 [methyl benzoate]	1.94
C=C(C)C1CC=CCC1 (stereo not given) [r-limonene]	1.38 and 0.95

From the odorant receptor screen of Mainland et al. (2015)
